# Test results taken from US20250197461A1, “Insect-derived short peptide for improving abscisic acid (ABA) content in cruciferous plant” (Gannan Normal University, priority 2023, published 2025).
# Tested on: Arabidopsis thaliana leaves
# Assay: Non-targeted metabolomics of Arabidopsis thaliana leaves treated with short peptide
# Format: in vivo
# Conditions: vs GFP control
# Experimental: In this experiment, the materials used for metabonomics analysis and phytohormone detection are Arabidopsis thaliana samples with consistent growth status. Synthetic short peptide of GSS1-PI with the corresponding concentration and mass was weighed and dissolved in 0.1% DMSO to obtain a 0.01 mg/mL treatment solution. A wild-type Arabidopsis thaliana plant of about four weeks old was taken, two cotyledons were collected and mechanically damaged to obtain three small holes, 2 μL of the GSS1-PI solution was added dropwise into each small hole, while GFP solution was used as the control group. […]
# After the experiment was completed, the relevant data files were imported into the database search software for analysis and processing, and the residence time, mass-to-charge ratio and other related parameters of each metabolite were simply screened and checked. […] Then peak extraction and peak area quantification were carried out to integrate the target ions, and then ion peaks were predicted by molecular formula and compared with local data. In order to remove the interference of background ions, the original quantitative results were standardized and blank sample controls were added. Finally, the relative quantitative results of the relevant metabolites were obtained and identified. […]
sequence,measurement,setting,value
PDYKQKLRDSKAWESLETIGIPLDADVM (insect-derived short peptide) [GSS1-PI],number of differential metabolites accumulated,24 h treatment,27
same,number of differential metabolites accumulated,48 h treatment,40
